Data as given in PubChem BioAssay AID1053208 (Peter MacCallum Cancer Centre, 2014)
This is a random part of about 17,000 deposited reagents. 788 of all reagents (4.7%) count as active. 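Calls rest on z-score classes alone; an extra cut-off of viability at most 70% of control was not applied to them.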 Reagent sequences are not shown.

Screen: 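Find knock-downs that sensitise mouse osteosarcoma cells to doxorubicin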 (primary screen)
Cells: mouse osteosarcoma cells, early-passage culture from an engineered mouse model of fibroblastic bone tumour
Reagents: siRNA pool against mouse genes, 40 nM
Time to read-out: about 120 h (48 h before drug, then 72 h with drug)
Challenge: doxorubicin 100 nM for 72 h, roughly 30-40% inhibitory dose
Detection: 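Viability read as ATP luminescence after 72 h of 100 nM doxorubicin or none, duplicate wells averaged, scaled to non-targeting siRNA, then expressed as robust z-scores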
Direction: viability z-score with doxorubicin and doxorubicin viability vs non-targeting: higher = more viable cells under doxorubicin; viability z-score without drug: higher = more viable cells with knock-down alone; z-score of drug to no-drug ratio: higher = less drug sensitisation by knock-down
Hit rule: 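Called active if knock-down leaves viability unchanged without drug (z within -2 to 2) but lowers it with doxorubicin (z at or under -2)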

The opening 7 entries, to show the layout:
gene symbol	combined z-score class	viability z-score with doxorubicin	viability z-score without drug	z-score of drug to no-drug ratio	doxorubicin viability vs non-targeting	outcome
Gstt3 (glutathione S-transferase, theta 3)	no change with or without drug	-0.22	-0.17	0	0.92	inactive
Evi2b (ecotropic viral integration site 2b)	no change with or without drug	-1.35	0.51	-1.57	0.82	inactive
Ppfia1	no change with or without drug	0.9	-0.17	1.24	1.02	inactive
Vmn1r65 (vomeronasal 1 receptor 65)	no change with or without drug	-0.22	0.51	-0.45	0.92	inactive
Nlrp4b (NLR family, pyrin domain containing 4B)	no change with or without drug	-1.12	-1.18	-0.34	0.84	inactive
Slc37a1	no change with or without drug	-1.12	0.17	-1.12	0.84	inactive
Mup4 (major urinary protein 4)	no change with or without drug	-0.22	-1.18	0.79	0.92	inactive

Main list, from the first entry:
gene symbol	combined z-score class	viability z-score with doxorubicin	viability z-score without drug	z-score of drug to no-drug ratio	doxorubicin viability vs non-targeting	outcome
Gstt3 (glutathione S-transferase, theta 3)	no change with or without drug	-0.22	-0.17	0	0.92	inactive
Evi2b (ecotropic viral integration site 2b)	no change with or without drug	-1.35	0.51	-1.57	0.82	inactive
Ppfia1	no change with or without drug	0.9	-0.17	1.24	1.02	inactive
Vmn1r65 (vomeronasal 1 receptor 65)	no change with or without drug	-0.22	0.51	-0.45	0.92	inactive
Nlrp4b (NLR family, pyrin domain containing 4B)	no change with or without drug	-1.12	-1.18	-0.34	0.84	inactive
Slc37a1	no change with or without drug	-1.12	0.17	-1.12	0.84	inactive
Mup4 (major urinary protein 4)	no change with or without drug	-0.22	-1.18	0.79	0.92	inactive
Mccc2 (methylcrotonoyl-Coenzyme A carboxylase 2 (beta))	no change with or without drug	-0.34	-0.51	0.11	0.91	inactive
Rala (Ras like proto-oncogene A)	no change with or without drug	1.12	-0.51	1.69	1.04	inactive
1810055G02Rik (RIKEN cDNA 1810055G02 gene)	high cell count without drug only	1.46	2.02	0.22	1.07	inactive
Psmc2 (proteasome (prosome, macropain) 26S subunit, ATPase 2)	low cell count with and without drug	-4.95	-3.71	-3.37	0.5	inactive
Cavin3 (caveolae associated 3)	no change with or without drug	1.57	0.51	1.35	1.08	inactive
Tmem63c (transmembrane protein 63c)	no change with or without drug	-0.67	-1.35	0.34	0.88	inactive
Ndufb7 (NADH:ubiquinone oxidoreductase subunit B7)	low cell count with and without drug	-3.37	-3.2	-1.57	0.64	inactive
Akr1c21 (aldo-keto reductase family 1, member C21)	no change with or without drug	-0.45	0.17	-0.45	0.9	inactive
Pdgfb (platelet derived growth factor subunit B)	no change with or without drug	-0.67	-0.67	-0.11	0.88	inactive
Zfp410 (zinc finger protein 410)	no change with or without drug	-0.67	0.34	-0.79	0.88	inactive
Prl8a6 (prolactin family 8, subfamily a, member 6)	no change with or without drug	0.67	0.67	0.34	1	inactive
Cxcl2 (C-X-C motif chemokine ligand 2)	no change with or without drug	0.22	-1.85	1.8	0.96	inactive
Nptn (neuroplastin)	high cell count without drug only	1.35	2.19	0	1.06	inactive
Ly75 (lymphocyte antigen 75)	no change with or without drug	0.34	-1.52	1.69	0.97	inactive
Cyct (cytochrome c, testis)	no change with or without drug	0.22	-0.51	0.67	0.96	inactive
Nsmce2 (NSE2/MMS21 homolog, SMC5-SMC6 complex SUMO ligase)	low cell count without drug only	-1.8	-2.19	-0.34	0.78	inactive
Ss18 (SS18, subunit of BAF chromatin remodeling complex)	no change with or without drug	0.11	-0.17	0.34	0.95	inactive
Krt1 (keratin 1)	no change with or without drug	-0.67	1.18	-1.35	0.88	inactive
Atf6 (activating transcription factor 6)	no change with or without drug	-1.57	-1.18	-0.79	0.8	inactive
Zfyve1 (zinc finger, FYVE domain containing 1)	no change with or without drug	-0.67	-0.51	-0.22	0.88	inactive
Xkr5 (XK related 5)	no change with or without drug	-0.67	0.34	-0.79	0.88	inactive
Vmn1r232 (vomeronasal 1 receptor 232)	low cell count with doxorubicin only	-2.25	0.17	-2.36	0.74	active
Ube2f (ubiquitin-conjugating enzyme E2F (putative))	no change with or without drug	-0.34	0.17	-0.34	0.91	inactive
Ppp2r2d (protein phosphatase 2, regulatory subunit B, delta)	high cell count with doxorubicin only	3.26	-0.51	4.05	1.23	inactive
Ctsr (cathepsin R)	no change with or without drug	1.12	1.52	0.22	1.04	inactive
Sap30l (SAP30-like)	no change with or without drug	0.9	-0.84	1.69	1.02	inactive
Btk (Bruton agammaglobulinemia tyrosine kinase)	no change with or without drug	0.11	1.18	-0.56	0.95	inactive
Tal2 (T cell acute lymphocytic leukemia 2)	no change with or without drug	-1.57	0.17	-1.69	0.8	inactive
Rps23 (ribosomal protein S23)	low cell count with and without drug	-4.72	-2.36	-3.82	0.52	inactive
Uba52 (ubiquitin A-52 residue ribosomal protein fusion product 1)	low cell count with doxorubicin only	-2.25	-0.51	-2.02	0.74	active
Idh3g (isocitrate dehydrogenase 3 (NAD+), gamma)	no change with or without drug	-1.35	-0.51	-1.01	0.82	inactive
Ahi1 (Abelson helper integration site 1)	no change with or without drug	0.34	-0.17	0.56	0.97	inactive
Ugt2b37 (UDP glucuronosyltransferase 2 family, polypeptide B37)	no change with or without drug	-0.22	-0.84	0.45	0.92	inactive
Cbs (cystathionine beta-synthase)	no change with or without drug	-1.57	0	-1.57	0.8	inactive
Ostf1 (osteoclast stimulating factor 1)	no change with or without drug	1.8	0.51	1.57	1.1	inactive
Foxa2 (forkhead box A2)	no change with or without drug	-0.9	1.35	-1.69	0.86	inactive
Sem1 (SEM1, 26S proteasome complex subunit)	low cell count with and without drug	-2.7	-3.04	-0.79	0.7	inactive
1700001F09Rik (RIKEN cDNA 1700001F09 gene)	no change with or without drug	-0.67	0.51	-0.9	0.88	inactive
Klk1b9 (kallikrein 1-related peptidase b9)	low cell count without drug only	-1.91	-3.04	0.22	0.77	inactive
Uhrf2 (ubiquitin-like, containing PHD and RING finger domains 2)	no change with or without drug	1.69	0.84	1.24	1.09	inactive
Hpx (hemopexin)	no change with or without drug	0.67	0.51	0.45	1	inactive
Vmn1r205 (vomeronasal 1 receptor 205)	low cell count with doxorubicin only	-2.02	-0.84	-1.57	0.76	active
Fat1 (FAT atypical cadherin 1)	no change with or without drug	-0.79	-1.52	0.34	0.87	inactive
Nelfcd (negative elongation factor complex member C/D, Th1l)	high cell count with doxorubicin only	3.04	1.18	2.36	1.21	inactive
Acot10 (acyl-CoA thioesterase 10)	no change with or without drug	0	0.17	0	0.94	inactive
Or11g26 (olfactory receptor family 11 subfamily G member 26)	no change with or without drug	-0.45	1.18	-1.12	0.9	inactive
Sncb (synuclein, beta)	no change with or without drug	1.57	1.85	0.45	1.08	inactive
Ndufc1 (NADH:ubiquinone oxidoreductase subunit C1)	no change with or without drug	-0.45	0.17	-0.45	0.9	inactive
A030005K14Rik (RIKEN cDNA A030005K14 gene)	no change with or without drug	0.9	1.69	-0.11	1.02	inactive
Washc3 (WASH complex subunit 3)	low cell count with doxorubicin only	-2.02	-0.84	-1.57	0.76	active
Cacng7 (calcium channel, voltage-dependent, gamma subunit 7)	no change with or without drug	0	0.51	-0.22	0.94	inactive
Stard13 (StAR related lipid transfer domain containing 13)	no change with or without drug	-0.34	-0.17	-0.11	0.91	inactive
Gak (cyclin G associated kinase)	no change with or without drug	-0.79	-0.51	-0.34	0.87	inactive
Cc2d1b (coiled-coil and C2 domain containing 1B)	no change with or without drug	0.9	0.17	0.9	1.02	inactive
Clpp	no change with or without drug	0.67	1.52	-0.22	1	inactive
Tiam2 (T cell lymphoma invasion and metastasis 2)	low cell count with doxorubicin only	-3.04	-1.52	-2.25	0.67	active
